The target of experiment [1] is T1, Phosphoglycerate mutase family member 5 (PGAM5) (mouse (endogenous in hippocampal tissue)) (UniProt Q8BX10).
T1 sequence: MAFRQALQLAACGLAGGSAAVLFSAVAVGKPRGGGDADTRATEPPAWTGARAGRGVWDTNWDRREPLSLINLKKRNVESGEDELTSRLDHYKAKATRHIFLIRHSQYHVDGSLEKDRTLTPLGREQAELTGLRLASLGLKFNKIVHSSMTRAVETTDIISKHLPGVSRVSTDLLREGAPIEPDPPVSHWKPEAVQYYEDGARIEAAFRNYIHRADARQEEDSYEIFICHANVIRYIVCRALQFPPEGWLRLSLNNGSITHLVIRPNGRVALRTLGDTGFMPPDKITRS
Put plainly: co-IP; protein extracts from hippocampal tissue of KA-model mice in IP lysis buffer; incubated with anti-PGAM5 (Santa, sc515880), anti-PINK1 (Proteintech, 23274-1-AP) or rabbit IgG overnight at 4°C, then protein A/G agarose beads 2 h at 4°C; washed three times; Western blot. For orientation: Immunoblotting shows a protein as a band on a membrane.

The chains behind the UniProt entries cited, without tags or fusion partners. Where a name states a change or a piece, a line headed by the entry shows the natural chain unless it says otherwise.
UniProt Q99MQ3: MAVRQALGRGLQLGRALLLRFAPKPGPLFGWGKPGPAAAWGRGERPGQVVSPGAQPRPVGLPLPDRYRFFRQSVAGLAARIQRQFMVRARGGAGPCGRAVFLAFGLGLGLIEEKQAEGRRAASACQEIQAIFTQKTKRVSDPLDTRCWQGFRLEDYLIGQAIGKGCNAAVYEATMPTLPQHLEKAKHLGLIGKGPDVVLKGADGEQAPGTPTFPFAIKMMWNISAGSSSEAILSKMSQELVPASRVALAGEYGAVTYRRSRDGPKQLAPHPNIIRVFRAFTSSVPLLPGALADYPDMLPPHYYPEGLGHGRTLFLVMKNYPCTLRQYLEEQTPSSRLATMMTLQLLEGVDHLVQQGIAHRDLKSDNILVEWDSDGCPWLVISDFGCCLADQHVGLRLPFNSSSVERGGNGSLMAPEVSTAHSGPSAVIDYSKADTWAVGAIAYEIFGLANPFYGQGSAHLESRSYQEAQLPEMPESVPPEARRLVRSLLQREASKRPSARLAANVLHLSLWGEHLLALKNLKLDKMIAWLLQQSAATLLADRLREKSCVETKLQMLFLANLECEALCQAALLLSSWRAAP

Experiment [2] addresses PTEN-induced putative kinase 1 (PINK1) (mouse (endogenous in hippocampal tissue)) (UniProt Q99MQ3). The experiment is described as above.

These are yes or no findings as the source states them, for the method shown. In cells and extracts the contact can be indirect. Some binding calls cover weakened binding; strength is not graded here.

With “PTEN-induced putative kinase 1 (PINK1) (from UniProt Q99MQ3 78-580)”, in experiment [1], the binding result is recorded as “binds”.

B1: Phosphoglycerate mutase family member 5 (PGAM5) (protein, UniProt Q8BX10 1-288)
chain: T1 sequence
Consider B1, for which the binding result in experiment [2] is reported as “binds”.

For the origin of these results see article PMC9813404.
